# Literature values in patent publication US7618987B2, “Acylated piperidine derivatives as melanocortin 4-receptor agonists” (Merck & Co., Inc., priority 2004, dated 2009).
# Some results were stated once for a whole list of compounds, not compound by compound. Some ranges recur; such a range may be that of the whole group of compounds.
# Conditions: drug compared to placebo
row,Structure (SMILES),weight loss
1,CC(C)(N)Cc1ccccc1 [phentermine],5%-10%
2,CC(C)CC(N(C)C)C1(c2ccc(Cl)cc2)CCC1 (stereo not drawn) [sibutramine],5%-10%
3,CCN[C@@H](C)Cc1cccc(C(F)(F)F)c1 [dexfenfluramine],5%-10%
